PubChem BioAssay AID540275 (National Center for Advancing Translational Sciences (NCATS), 2011)
In all, about 320,000 compounds went through this assay and about 620 (0.19%) were called active. Inconclusive means that the source gave no clear call. Such entries were picked first, then a sample of the others. Cut-off read from the data, not from the text of the source: active = activation above about 80%; inconclusive = between about 30% and that limit; inactive = weaker than that.

The chains behind the UniProt entries cited, without tags or fusion partners.
UniProt Q8NER1, whole entry, looked up: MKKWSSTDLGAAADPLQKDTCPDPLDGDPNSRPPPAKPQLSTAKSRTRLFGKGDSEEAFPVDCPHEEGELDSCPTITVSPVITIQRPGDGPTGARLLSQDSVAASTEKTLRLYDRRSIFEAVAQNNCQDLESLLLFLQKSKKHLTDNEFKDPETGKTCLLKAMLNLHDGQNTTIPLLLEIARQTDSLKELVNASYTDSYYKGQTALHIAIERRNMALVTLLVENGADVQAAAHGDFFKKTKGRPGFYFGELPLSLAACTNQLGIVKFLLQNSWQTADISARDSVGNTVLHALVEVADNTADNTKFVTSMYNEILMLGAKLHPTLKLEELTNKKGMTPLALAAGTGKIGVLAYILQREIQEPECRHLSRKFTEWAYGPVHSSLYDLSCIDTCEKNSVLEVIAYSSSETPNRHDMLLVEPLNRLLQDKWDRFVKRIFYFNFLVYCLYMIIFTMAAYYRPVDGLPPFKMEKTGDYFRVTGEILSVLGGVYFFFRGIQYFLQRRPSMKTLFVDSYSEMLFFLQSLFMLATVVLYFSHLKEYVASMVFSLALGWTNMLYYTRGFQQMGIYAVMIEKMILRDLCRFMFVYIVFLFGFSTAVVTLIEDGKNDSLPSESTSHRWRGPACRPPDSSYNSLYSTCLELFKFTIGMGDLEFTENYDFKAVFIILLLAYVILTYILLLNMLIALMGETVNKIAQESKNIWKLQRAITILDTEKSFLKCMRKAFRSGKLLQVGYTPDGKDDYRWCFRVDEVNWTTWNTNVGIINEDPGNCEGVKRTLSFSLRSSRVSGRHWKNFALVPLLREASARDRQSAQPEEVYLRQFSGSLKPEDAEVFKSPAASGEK

biological target: Transient receptor potential cation channel subfamily V member 1 (Homo sapiens) (UniProt Q8NER1); experiment: HTS Assay for Compounds that Act as Agonists of the Vanilloid Receptor 1; details: TRPV1-expressing cells, Fluo-8 calcium influx, agonist mode; at 8.33 µM, hits give high values; note: 0% is about no effect
Procedure, shortened: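 Cells expressing TRPV1 were dye-loaded with Fluo-8 and read kinetically: 10 s baseline, 3 min after compound (agonist portion), then 2 min after EC20 capsaicin (allosteric enhancer portion). Calcium-bound dye fluorescence at 480/520 nm.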

Row | SMILES | activation
1 | O=C(NCC1CCCO1)C1CC1(c1ccccc1)c1ccccc1 (configuration not stated) | inconclusive: 53.8%
2 | O=C(NCCc1ccccc1)c1ccc(CS(=O)(=O)c2ccc(Cl)cc2)o1 | inconclusive: 54.9%
3 | O=C(CSc1cn(CCNC(=O)c2cccs2)c2ccccc12)NC1CCCCC1 | inconclusive: 31%
4 | O=C(COC(=O)c1ncc(Cl)c(Cl)c1Cl)NC1CCCCCC1 | inconclusive: 43.3%
5 | CCOC(=O)c1ccc(NC(=O)c2cc3c(s2)CCC3)cc1 | active: 106%
6 | CCN(C1CCCCC1)S(=O)(=O)c1ccc(S(=O)(=O)NCCc2ccncc2)cc1 | inconclusive: 49.1%
7 | COc1ccc(NS(=O)(=O)c2ccc(S(=O)(=O)N3CCCC3)cc2)cc1Cl | inconclusive: 31.5%
8 | Fc1ccc(C2=Nn3c(Cc4ccccc4F)nnc3SC2)cc1 | inconclusive: 58.2%
9 | CC(C)(C)c1ccc(C(=O)N/N=C/c2ccc(OCCCF)cc2)cc1 | inconclusive: 36.4%
10 | O=C(c1cc(COc2c(F)cccc2F)on1)N1CCC(c2ccncc2)CC1 | inconclusive: 74.5%
11 | Cc1cccc(CSc2ccc(-c3cccs3)nn2)c1 | inconclusive: 30.3%
12 | CNC(=O)C1CCN(S(=O)(=O)c2c(C)noc2/C=C/c2ccccc2F)CC1 | inconclusive: 38.4%
13 | O=C(Nc1nnc(C2CCCCC2)s1)c1ccc(Br)s1 | active: 80.4%
14 | O=C(N/N=C/c1cc(Br)ccc1O)c1ccncc1 | inconclusive: 55.4%
15 | Cc1ccc(C)c(OCC(=O)N(Cc2nnc(-c3ccccc3Cl)o2)C2CC2)c1 | inconclusive: 51.9%
16 | O=[N+]([O-])c1cc([N+](=O)[O-])c(Oc2cc(F)ccc2F)cc1NN1CCCCC1 | inconclusive: 39%
17 | CC(N=Cc1cc([N+](=O)[O-])ccc1O)c1ccccc1 (configuration not stated) | inactive: -0.388%
18 | O=C(CN1C(=O)NC(c2ccccc2)(c2ccccc2)C1=O)N1CCN(c2ccccc2F)CC1 | inactive: -0.697%
19 | COc1ccc(Cn2nnnc2C(c2cccs2)N2CCN(c3ccccc3)CC2)cc1 (configuration not stated) | inactive: -1.15%
20 | O=C(Nc1ccc(Cl)cc1[N+](=O)[O-])c1ccc2c(c1)OCCO2 | inconclusive: 33.3%
21 | O=C(Nc1ccc(N2CCOCC2)cc1)Nc1ccc2nsnc2c1 | inconclusive: 34.6%
22 | CS(=O)(=O)N1CCc2cc(C(=O)Nc3ccc(Br)cc3)ccc21 | active: 88.2%
23 | O=C(O)c1cccc(N/N=C/c2cccc3ccccc23)c1 | inactive: -4.15%

Row | SMILES | activation
24 | N#Cc1nc(-c2ccccc2F)oc1NCc1ccccc1 | inconclusive: 32%
25 | COc1ccc(Cc2nc(-c3ccncc3)no2)cc1 | inactive: 10.5%
26 | CC(C)(C)c1ccc(C(=O)NCC(=O)N2CCCCCC2)cc1 | inconclusive: 57.5%
27 | O=C(OCc1ccccc1)/C(=C/c1cccc2ccccc12)NC(=O)c1ccccc1 | inactive: 25.1%
28 | CCn1c(/C=C/c2ccccc2F)nc2ccccc2c1=O | inconclusive: 32.9%
29 | Cc1ccc(NC(=O)Cn2ccnc2)cc1C | inconclusive: 33.8%
30 | COc1cccc(NC(=O)CN(C)C(=O)c2ccc(-c3ccc(Cl)cc3)o2)c1 | inconclusive: 36.2%
31 | Cn1c(NC(=O)c2cccs2)cc(=O)n(C)c1=O | inactive: 0.116%
32 | Cc1ccc(Nc2ncnc3c2cnn3C)cc1 | inconclusive: 72.3%
33 | CCc1cc2cc(C(=O)Nc3ccccc3F)sc2s1 | inconclusive: 45.4%
34 | Cc1ccc2oc(C(=O)Nc3nonc3C)c(C)c2c1 | inconclusive: 41.6%
35 | COc1ccc(C(CNC(=O)c2ccc(-c3ccccc3Cl)o2)N2CCOCC2)cc1 (configuration not stated) | inconclusive: 43.2%
36 | CCN(C(=O)CCc1nc(-c2ccc(OC)cc2)no1)c1cc(OC)ccc1OC | inactive: -0.0567%
37 | Cc1ccc2oc(C(=O)NC3CCS(=O)(=O)C3)c(C)c2c1 (configuration not stated) | inconclusive: 42%
38 | COc1ccc(Nc2nc(NN)nc(Nc3ccc(OC)cc3)n2)cc1 | inconclusive: 46.5%
39 | O=C(Nc1ccc2c(c1)CCC2)c1c(F)cccc1Cl | inconclusive: 55.1%
40 | COCCNc1c(-c2ccc(OC)cc2)nc2ccc(Cl)cn12 | inconclusive: 31.6%
41 | COc1cc(-c2c(C#N)c(N)nc(SCc3ccncc3)c2C#N)cc(OC)c1OC | inactive: 2.19%
42 | Cc1cc(NC(=O)c2cc(-c3cccs3)on2)no1 | inconclusive: 31.3%
43 | CCc1cc2c(-c3ccccc3)cc(=O)oc2c(CN2CCOCC2)c1O | inconclusive: 37.3%
44 | FC(F)(F)c1ccc(Nc2nnnc3ccccc23)cc1 | inconclusive: 70.1%
45 | Cc1ccccc1NC(=O)C(=Cc1ccc(C(=O)O)cc1)C(=O)Nc1ccccc1C | inactive: 9.39%
46 | Cc1cccc(NCCC(=O)c2ccc(Br)cc2)c1 | inconclusive: 42.2%

For convenience, 2 of the compounds above:
Row | SMILES | activation
44 | FC(F)(F)c1ccc(Nc2nnnc3ccccc23)cc1 | inconclusive: 70.1%
45 | Cc1ccccc1NC(=O)C(=Cc1ccc(C(=O)O)cc1)C(=O)Nc1ccccc1C | inactive: 9.39%

Continued:

Row | SMILES | activation
47 | Fc1cccc(Nc2cc(-n3cccn3)ncn2)c1 | inconclusive: 47.6%
48 | OCCNCc1cc(Br)ccc1OCc1ccc(Cl)cc1Cl | inactive: 0.664%
49 | CC1CCc2c(sc3nc(CN4CCOCC4)nc(N4CCc5ccccc5C4)c23)C1 (configuration not stated) | inconclusive: 34.5%
50 | CCCOC(=O)c1c(NC(=O)C2C3C=CC(C3)C2C(=O)O)sc2c1CCC(C)C2 (configuration not stated) | inactive: -0.101%
51 | COC(=O)c1[nH]c2ccccc2c1NC(=O)CN1CCC(C(N)=O)(N2CCCCC2)CC1 | inactive: -0.695%
52 | COc1ccc([C@H]2CC(=O)C=C(c3ccccc3)C2)cc1 | inconclusive: 53.7%
53 | C/C(=N\NC(=O)c1cc(C)oc1C)c1ccc2ccccc2c1 | inactive: 20.3%
54 | CCOC(=O)CC1(NC(=O)c2cc(COc3cccc(OC)c3)on2)CCCCC1 | inconclusive: 48.1%
55 | CSc1nnc2c3c4c(sc3nc(-n3nc(C)cc3C)n12)COC(C)(C)C4 | active: 80.4%
56 | O=C(Nc1ccc(N2CCOCC2)cc1)Nc1ccc(Cl)c(Cl)c1 | inconclusive: 46.2%
57 | CCOc1ccccc1NC(=O)CN(C)S(=O)(=O)c1cccc2nsnc12 | inconclusive: 33.1%
58 | COC(=O)N/N=C/c1cc(Cl)cc(Cl)c1OCc1ccccc1 | inactive: 25%
59 | Cc1ccc(OCC(=O)Nc2ccc([N+](=O)[O-])cc2)cc1 | inconclusive: 53.3%
60 | O=C(Nc1ccc(Cl)cc1)NC1CCCCC1 | inconclusive: 32%
61 | CCOc1cc(/C=N/O)ccc1OCc1ccc([N+](=O)[O-])cc1 | inactive: -0.632%
62 | COc1cc(/C=C(\C#N)C(=O)N2CCOCC2)ccc1OCc1ccccc1 | inconclusive: 39.5%
63 | O=c1[nH]c(-c2ccc(O)cc2)nc2scc(-c3cccs3)c12 | inconclusive: 45.6%
64 | O=c1/c(=C\c2ccc(O)cc2)sc2n1C(c1ccccc1)C(c1ccccc1)=NN=2 (configuration not stated) | inconclusive: 32.5%
65 | CC(C)c1c(C(=O)N/N=C/c2ccc(Cl)cc2Cl)nnn1-c1nonc1N | inconclusive: 48.1%
66 | Cc1c(C(=O)N2CCc3ccccc3C2)oc2ccc(Br)cc12 | inconclusive: 44.5%
67 | CNC(=O)[C@@H]1C[C@H]1[C@@H](NC(=O)OCc1ccccc1)c1ccccc1 | inactive: 25%
68 | CCC1Sc2ccccc2N(CC(=O)NCc2ccc3c(c2)OCO3)C1=O (configuration not stated) | inconclusive: 34.8%
69 | Cc1ccccc1NC(=O)c1ccc2ccccc2c1 | inconclusive: 65.1%

Laid out differently: three of the compounds above.
Row	SMILES	activation
64	O=c1/c(=C\c2ccc(O)cc2)sc2n1C(c1ccccc1)C(c1ccccc1)=NN=2 (configuration not stated)	inconclusive: 32.5%
65	CC(C)c1c(C(=O)N/N=C/c2ccc(Cl)cc2Cl)nnn1-c1nonc1N	inconclusive: 48.1%
66	Cc1c(C(=O)N2CCc3ccccc3C2)oc2ccc(Br)cc12	inconclusive: 44.5%

Further results

Row | SMILES | activation
70 | CCc1ccc(NC(=O)c2ccc3nc(N)sc3c2)cc1 | inconclusive: 76.2%
71 | Cc1ccc(-n2ncc3c(=O)n(Cc4cccnc4)cnc32)cc1 | inconclusive: 58.6%
72 | CN(C)C(CNC(=O)c1ccccc1OCc1ccc(Cl)cc1)c1ccco1 (configuration not stated) | inconclusive: 48.3%
73 | COc1ccc(CCNS(=O)(=O)c2cnc(Cl)c(Br)c2)cc1OC | inconclusive: 35.6%
74 | COc1ccc(/C=C/C(=O)Nc2cc(C)nn2-c2nc3ccccc3[nH]2)cc1 | inconclusive: 43.4%
75 | COc1cccc(CNC(=O)CN(C)S(=O)(=O)c2ccc(Br)s2)c1 | inconclusive: 47.4%
76 | CC(C)c1ccc(C(=O)Nc2nnc(S(=O)(=O)N3CCOCC3)s2)cc1 | inconclusive: 60.2%
77 | CC1CCc2[nH]c3ccc(C(=O)NCCCOC(C)C)cc3c2C1 (configuration not stated) | inconclusive: 49.2%
78 | O=C(CCCOc1ccc(Cl)cc1)Nc1ccc(N2CCOCC2)cc1 | inconclusive: 35.8%
79 | CC(C)Oc1ccc(C(=O)Nc2cccc3cccnc23)cc1 | inconclusive: 45.7%
80 | CCc1ccc(C(O)(CC(C)C)C(CN2CCOCC2)c2ccccc2)cc1 (configuration not stated) | inconclusive: 37.4%
81 | CC(C)CCNC(=O)C1CCC(=O)N1CCc1ccccc1 (configuration not stated) | inactive: -3.12%
82 | COC(C(=O)NNS(=O)(=O)c1ccccc1[N+](=O)[O-])c1ccccc1 (configuration not stated) | inactive: 1.48%
83 | OC(CN1CCNCC1)Cn1c2ccccc2c2ccccc21 (configuration not stated) | inactive: -0.792%
84 | CC(NC(=O)CSCc1ccccc1Br)c1ccccc1 (configuration not stated) | inconclusive: 32.7%
85 | Cc1ccc(S[C@@H](CCN2CC[C@H](O)CCC2=O)c2ccccc2)cc1 | inconclusive: 72.1%
86 | CCOCCCNC(=O)c1c(C)[nH]c(C(=O)OCC)c1C | inconclusive: 36.3%
87 | CCCCCCOC(=O)c1ccc(NC(=O)c2cc(OC)c(OC)c(OC)c2Br)cc1 | inactive: -1.07%
88 | CC(C)CC(c1nnnn1Cc1cccs1)N1CCN(c2nc3ccccc3s2)CC1 (configuration not stated) | inactive: 1.44%
89 | Cc1ccc(CN(C)C(=O)c2cccc(S(=O)(=O)N3CCc4ccccc4C3)c2)o1 | inconclusive: 42.2%
90 | O=C(NNC(=O)c1cc2c(s1)CCCC2)c1ccccc1 | inconclusive: 40.6%
91 | Cc1ccc(NC(=O)NCc2ccc3c(c2)OCO3)cc1 | inconclusive: 32%
92 | Cc1c(N2C(=O)C(=O)/C(=C(/O)c3ccc(Br)cc3)C2c2cccnc2)c(=O)n(-c2ccccc2)n1C (configuration not stated) | inactive: 5.45%
